Measured values taken from PubChem BioAssay AID624297 (National Center for Advancing Translational Sciences (NCATS), 2012).
The campaign covered roughly 340,000 compounds. About 6,200 (1.8%) were called active. Inconclusive means that the source gave no clear call. Such entries were picked first, then a sample of the others. Calls follow the shape of the dose curve; as a rule, active = well fitted activation curve with a large enough effect; inconclusive = small, poorly fitted or top-dose-only effect; inactive = no such curve, though single readings can be large or run the other way. A potency beside an inconclusive call is a rough fit, not a confirmed value.

test: A quantitative high throughput screen for small molecules that induce DNA re-replication in SW480 colon adenocarcinoma cells.; also: nearly all actives have a fitted effect of over 55% in size; as to re-replication activation: % of control where 0% means no effect; details: Hoechst DNA content imaging, 48 h; re-replication activation: at 46.1 µM (top of the series) unless noted
Summary of the method: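 Quantitative HTS format with DMSO vehicle controls; 48 hr drug incubation at 37 C, then 40 min Hoechst staining and scanning imager measurement at 405 nm excitation.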
Potency is read from the fitted curve at half-maximal effect.

Compound	re-replication activation	Potency
CCOC(=O)c1ccccc1NC(=O)/C=C/C(=O)O	inactive: -5.95%	–
COc1ccc(CNCCC(c2ccc(OC(C)C)cc2)c2ccccc2OC)cc1 (stereo not drawn)	–	inconclusive: 16.4 µM [activator, partial curve]
O=C(CCn1c(=O)sc2ccccc21)NCCC1=CCCCC1	inactive: -7.44%	–
COc1cc(OC)c2c(-c3cccc(-c4ccc(O)cc4)c3)cc(=O)oc2c1	–	inconclusive: 20.6 µM [activator, single point]
O=C1NC(=Nc2ccccc2Cl)S/C1=C\c1ccc(C(=O)O)cc1	inconclusive: 15.6% [activator]	–
CCCCNC(=S)NNc1c(Cl)cc(Cl)cc1Cl	inactive: -9.24%	–
C=CCN(c1ccc(C(=O)Nc2cccc(C)c2)cc1)S(C)(=O)=O	inactive: -2.6%	–
O=C(NCCc1ccccc1)C1CCCN(c2ncnc3c2nc2n3CCCCC2)C1 (stereo not drawn)	–	inconclusive: 0.411 µM [activator, full curve, poor fit]
Nc1nc(CN2CCCCCC2)nc(Nc2ccccc2)n1	inactive: -6.09%	–
CCCn1nnc(NC(=O)COc2ccc(Cl)cc2)n1	inactive: -2%	–
CC1(C)C(CSc2nc3ccccc3[nH]2)C1(Cl)Cl (stereo not drawn)	–	inconclusive: 18.4 µM [activator, single point]
CCC1CCCCN1C(=S)NC(=O)c1cc(S(=O)(=O)N2CCOCC2)ccc1C (stereo not drawn)	–	inconclusive: 3.26 µM [activator, partial curve, poor fit]
CCC(Sc1ccccn1)C(=O)Nc1cccc([N+](=O)[O-])c1 (stereo not drawn)	–	inconclusive: 14.6 µM [activator, single point]
CCOC(=O)c1nc2sc3c(c2c(=O)[nH]1)CCCC3	inactive: -127%	–
COc1ccc(CC(N)C(=O)NC2C(CO)OC(n3cnc4c(N(C)C)ncnc43)C2O)cc1 (stereo not drawn)	–	inconclusive: 1.33 µM [activator, full curve]
Cc1ccc(/C=C2\SC(=S)N(/N=C/c3cc([N+](=O)[O-])ccc3O)C2=O)o1	inactive: -3.91%	–
CCOC(=O)C1CCCN(CCC(=O)Nc2ccc(Br)c(C)c2)C1 (stereo not drawn)	inactive: -1.15%	–
CN(CC(=O)NCc1ccccc1)CC(=O)Nc1ccc(Cl)c(C(F)(F)F)c1	–	inconclusive: 3.26 µM [activator, single point]
O=C1CCC(/C=C/c2ccccc2)=NN1Cc1ccccc1Cl	inactive: 1.41%	–
O=C(CSc1nc2ccc(Nc3nc(N4CCOCC4)nc(N4CCOCC4)n3)cc2s1)Nc1ccccc1Cl	–	inconclusive: 29.1 µM [activator, single point]
COc1cc2c(cc1OC)C(C)N(C(=O)c1nccnc1C(=O)O)CC2 (stereo not drawn)	inactive: 0.869%	–
COc1ccc(CC(=O)NCc2n[nH]c(=S)n2-c2ccc(F)cc2)cc1	–	inconclusive: 0.0041 µM [activator, full curve, poor fit]
O=C(Nc1ccc(Cl)cc1Cl)C1=Cc2ccccc2OC1	inactive: -3.46%	–
CCOc1ccc(C(=O)NCC(=O)N2CCC3(CC2)NCCc2[nH]cnc23)cc1	–	inconclusive: 16.4 µM [activator, single point]
CN(CC(=O)Nc1ccc(Cl)cc1)C(=O)c1ccc(-n2cncn2)c([N+](=O)[O-])c1	–	inconclusive: 2.59 µM [activator, full curve, poor fit]

Ordered by heavy-atom count (falling): part of the list above.
Compound	re-replication activation	Potency
O=C(CSc1nc2ccc(Nc3nc(N4CCOCC4)nc(N4CCOCC4)n3)cc2s1)Nc1ccccc1Cl	–	inconclusive: 29.1 µM [activator, single point]
COc1ccc(CC(N)C(=O)NC2C(CO)OC(n3cnc4c(N(C)C)ncnc43)C2O)cc1 (stereo not drawn)	–	inconclusive: 1.33 µM [activator, full curve]
O=C(NCCc1ccccc1)C1CCCN(c2ncnc3c2nc2n3CCCCC2)C1 (stereo not drawn)	–	inconclusive: 0.411 µM [activator, full curve, poor fit]
CCOc1ccc(C(=O)NCC(=O)N2CCC3(CC2)NCCc2[nH]cnc23)cc1	–	inconclusive: 16.4 µM [activator, single point]
COc1cc(OC)c2c(-c3cccc(-c4ccc(O)cc4)c3)cc(=O)oc2c1	–	inconclusive: 20.6 µM [activator, single point]
COc1cc2c(cc1OC)C(C)N(C(=O)c1nccnc1C(=O)O)CC2 (stereo not drawn)	inactive: 0.869%	–
CCOC(=O)C1CCCN(CCC(=O)Nc2ccc(Br)c(C)c2)C1 (stereo not drawn)	inactive: -1.15%	–
O=C(CCn1c(=O)sc2ccccc21)NCCC1=CCCCC1	inactive: -7.44%	–
Nc1nc(CN2CCCCCC2)nc(Nc2ccccc2)n1	inactive: -6.09%	–
O=C(Nc1ccc(Cl)cc1Cl)C1=Cc2ccccc2OC1	inactive: -3.46%	–
CCCn1nnc(NC(=O)COc2ccc(Cl)cc2)n1	inactive: -2%	–
CCOC(=O)c1nc2sc3c(c2c(=O)[nH]1)CCCC3	inactive: -127%	–
CCCCNC(=S)NNc1c(Cl)cc(Cl)cc1Cl	inactive: -9.24%	–

Later entries.

Compound	re-replication activation	Potency
CCN(CC)c1ccc2cc(C(N)=O)c(=O)oc2c1	–	inconclusive: 2.06 µM [activator, partial curve, poor fit]
Cc1cccc(S(=O)(=O)C(C#N)c2nc3ccccc3nc2N2CC(C)OC(C)C2)c1 (stereo not drawn)	inactive: -5.91%	–
CCC(C(=O)NCc1ccc(F)cc1)N(CCc1ccccc1)C(=O)c1snc(C(N)=O)c1N (stereo not drawn)	–	inconclusive: 18.4 µM [activator, partial curve, poor fit]
CCCC(=O)NC(=S)NNC(=O)c1ccc([N+](=O)[O-])cc1	–	inconclusive: 16.4 µM [activator, partial curve, poor fit]
Cc1ccc(CSc2nccc(-c3c(C)nc4ccccn34)n2)cc1	–	inconclusive: 0.259 µM [activator, full curve, poor fit]
O=C(Nc1nc(-c2ccc(S(=O)(=O)N3CCCCCC3)cc2)cs1)c1ccccc1	inactive: -3.45%	–
Cc1ccc(SCC(=O)Nc2ccc(N3CCN(C)CC3)c(F)c2)c(C)c1	–	inconclusive: 29.1 µM [activator, single point]
Cc1ccc(-c2csc(N(C)C(=O)c3c(C)nn(-c4ccccc4)c3Cl)n2)cc1	inactive: -4.76%	–
O=C(Nc1ccc(-c2ccccc2)cc1)c1ccccc1	inactive: -0.854%	–
CN(C(=O)c1cccc(NC(=O)Cc2ccc(NC(=O)C3CCCN(C(=O)C4CC4)C3)cc2)c1)C1CC1 (stereo not drawn)	inactive: -35.3%	–
O=C(CCl)N1c2ccccc2SCC1c1ccccc1 (stereo not drawn)	–	active: 14.6 µM
Cc1ccccc1NC(=O)N1CCN(C(=O)c2ccco2)CC1	–	inconclusive: 0.461 µM [activator, full curve, poor fit]
N#CCc1ccc(NC(=O)c2ccc(S(=O)(=O)N3CCCC3)cc2)cc1	inactive: -8.01%	–
CCOC(=O)CNC(=O)CSc1nc(Cc2ccccc2)nc2ccccc12	inconclusive: -45.6% [activator]	–
S=C(NCCc1ccccc1)N1CCN(C(=S)NCCc2ccccc2)CC1	inactive: 3.34%	–
Cc1ncc([N+](=O)[O-])n1CCOC(=O)c1cc(Cl)cc(Cl)c1N	inactive: -2.11%	–
O=C(O)CSc1c2c(nc3cc(C(=O)Nc4ccc(F)c(Cl)c4)ccc13)CCCC2	inconclusive: -20.6% [activator]	–
C=CCn1c(COc2ccccc2)nnc1SCC(=O)N/N=C/c1cc(Cl)ccc1O	–	inconclusive: 23.1 µM [activator, single point]
COc1ccc(NC(=O)c2[nH]c(C)c(C(C)=O)c2C)cc1Cl	–	inconclusive: 0.206 µM [activator, full curve, poor fit]
O=[N+]([O-])c1cc(S(=O)(=O)NC2=NCCCCC2)ccc1Cl	inactive: -0.977%	–
CCCCNc1c(-c2cccc(-c3cc(C(C)=O)cs3)c2)nc2cc(C)ccn12	–	inconclusive: 2.91 µM [activator, full curve, poor fit]
CC(C)(C)[C@H]1C=C(C(N)=O)O[C@@H](OCCCCO)C1	–	inconclusive: 0.103 µM [activator, full curve, poor fit]
O=C1CS/C(=N/N=C2C3CC4CC(C3)CC2C4)N1	inactive: -6.38%	–
COc1ccccc1N1CCN(CC(=O)Nc2cc(F)ccc2C)CC1	–	inconclusive: 0.282 µM [activator, full curve, poor fit]
CCOCCOC(=O)c1[nH]c2c(c1C)C(=O)CC(c1cccs1)C2 (stereo not drawn)	–	active: 1.16 µM

Compound	re-replication activation	Potency
CC1(C)CC(=O)C=C(NCCN2CCN(C(=O)Nc3ccccc3)CC2)C1	–	inconclusive: 29.1 µM [activator, single point]
COc1cccc(/C=C/C(=C2/C(=O)N(c3ccccc3)N=C2C)c2ccc(C)cc2)c1OC	inactive: -4.82%	–
CCN1C[C@@H]2[C@@H]3C(=O)N(Cc4ccccc4)C(=O)[C@@H]3[C@](Cc3ccccc3)(C(=O)OC)N2C1=NC1CCCCC1	–	inconclusive: 1.16 µM [activator, partial curve, poor fit]
C[C@@H](C(=O)OCC(=O)NCCc1ccc(S(N)(=O)=O)cc1)N1C(=O)C2CCCCC2C1=O (stereo partly drawn)	inactive: -52.8%	–
COc1ccccc1N1CCN(C(=O)CN(Cc2ccccc2)S(C)(=O)=O)CC1	inactive: 1.8%	–
CCCC[n+]1ccn(C2=C([O-])c3ccccc3C(=O)/C2=N\S(=O)(=O)c2ccccc2)c1	–	inconclusive: 3.98 µM [activator, single point]
CC(=O)CSc1nc(N(C)C)nc(N(C)C)n1	–	inconclusive: 29.1 µM [activator, single point]
CCOC(=O)c1c(C=O)c(C)n(Cc2ccccc2Cl)c1C	–	inconclusive: 29.1 µM [activator, single point]
CCOC(=O)c1c(/N=C/N(C)C)sc(/C=N/Nc2ccccc2)c1-c1ccccc1Cl	–	active: 18.4 µM
Cc1cc(C(=O)CSc2nnc(Nc3ccccc3F)s2)c(C)n1CC1CCCO1 (stereo not drawn)	inactive: 17.4%	–
COCCSc1nnc(NC(=O)C(C)(C)C)s1	–	inconclusive: 0.794 µM [activator, full curve]
CCCn1c(SCC(=O)NC2CCCCC2)nnc1-c1ccco1	inactive: -4.12%	–
Cc1cc(=O)oc2cc(OCC(=O)Nc3ccccc3C(=O)O)ccc12	–	inconclusive: 9.2 µM [activator, partial curve, poor fit]
O=C(CCn1c(=S)[nH]c2ccccc2c1=O)N1CCCCC1	inconclusive: -20.9% [activator]	–
CCN(CC(=O)NCc1ccc(Cl)cc1)C(=O)COc1ccc(Cl)cc1Br	inactive: -0.528%	–
Cc1ccc2cc(/C=C/C(=O)c3ccco3)c(Cl)nc2c1	–	inconclusive: 29.1 µM [activator, single point]
Cc1cccc(OCC(=O)N2CCCc3ccccc32)c1	inactive: 3.89%	–
CC(=O)c1ccc(NC(=S)N2c3ccccc3CC2C)cc1 (stereo not drawn)	inactive: -16.3%	–
COc1ccc2c(c1)C(=O)C(=O)N2CC1COc2ccccc2O1 (stereo not drawn)	–	inconclusive: 20.6 µM [activator, single point]
Cc1ccc(S(=O)(=O)NCC(=O)OCN2C(=O)c3ccccc3C2=O)cc1	–	inconclusive: 23.1 µM [activator, single point]
COc1ccc2cc1Oc1ccc(cc1)C[C@H]1c3c(cc4c(c3Oc3cc5c(cc3OC)CCN(C)[C@@H]5C2)OCO4)CCN1C	–	inconclusive: 5.17 µM [activator, full curve, poor fit]
O=C(N/N=C/c1cc(Cl)cc(Cl)c1O)c1ccncc1	–	inconclusive: 9.2 µM [activator, partial curve]
O=C(C1CCN(S(=O)(=O)c2c(Cl)cccc2Cl)CC1)N1CCCC1	–	inconclusive: 14.6 µM [activator, partial curve, poor fit]

Some of the entries so far, comma-delimited:
Compound,re-replication activation,Potency
CCCC[n+]1ccn(C2=C([O-])c3ccccc3C(=O)/C2=N\S(=O)(=O)c2ccccc2)c1,–,"inconclusive: 3.98 µM [activator, single point]"
O=C(CCn1c(=S)[nH]c2ccccc2c1=O)N1CCCCC1,inconclusive: -20.9% [activator],–
